PubChem BioAssay AID504791, Drosophila RNAi Screening Center – 2011

- Purpose: 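Factors in Argonaute-based small RNA production and activity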 (primary screen)
- Cells: Drosophila S2-derived reporter cells
- Knock-down reagent: long dsRNA against Drosophila genes, about 150-250 ng dsRNA per well (siRNA assay); about 80-120 ng (miRNA assay)
- Time to read-out: about 5 days (siRNA assay); about 4 days (miRNA assay)
- Challenge: copper sulfate induction of reporters: 25 µM (siRNA assay); 200 mM stated (miRNA assay), 1-2 days before reading
- Measured: 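Dual luciferase assay: Renilla to firefly signal ratio in each well, scaled to the mean ratio of its plate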
- Hit rule: 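a well was a first-pass pick when its plate-scaled ratio rose above 1.5 (siRNA assay) or 1.6 (miRNA assay), or dropped below 0.6; a gene counted only if two separate dsRNAs agreed on retest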
The screen tested about 23,000 reagents; this is an unselected part of those that have a named target and a result. In the full data, 199 (0.86%) got an active call. 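Plate-scaled ratios behind the calls are not deposited; printed light signals are raw; many rows marked increased or decreased are still called inactive.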 The numbers tell different reagents against one gene apart. A plus sign joins genes that one reagent is predicted to hit. The record does not give: the direction of the score.

Target gene | dsRNA no. | stable siRNA reporter change | miRNA reporter change | stable assay Renilla, run 1 (luminescence) | stable assay firefly, run 1 (luminescence) | outcome
CG10959 | 1 | – | – | 8423 | 7.74e5 | inactive
axed (axundead) | 1 | reporter ratio raised past the hit cutoff | – | 6091 | 2.74e5 | inactive
axed (axundead) | 2 | – | – | 5792 | 3.29e5 | inactive
escl | 1 | – | – | 24558 | 1.58e6 | inactive
mthl12 (methuselah-like 12) | 1 | – | – | 6700 | 5.62e5 | inactive
CG11788 | 1 | – | – | 5999 | 3.14e5 | inactive
RpL7A (Ribosomal protein L7A) | 1 | – | – | 4867 | 2.15e5 | inactive
CG31388 | 1 | – | – | 8815 | 4.74e5 | inactive
CG8142 | 1 | – | – | 8781 | 5.26e5 | inactive
CG14488 | 1 | – | – | 7827 | 4.50e5 | inactive
CG7840 | 1 | – | – | 13240 | 6.77e5 | inactive
CG7675 | 1 | – | – | 8766 | 3.35e5 | inactive
CG17359 | 1 | – | – | 6554 | 3.71e5 | inactive
Irbp (Inverted repeat-binding protein) | 1 | – | – | 6094 | 3.80e5 | inactive
Irbp (Inverted repeat-binding protein) | 2 | – | – | 4595 | 2.90e5 | inactive
iPLA2-VIA (calcium-independent phospholipase A2 VIA) | 1 | – | – | 8099 | 4.34e5 | inactive
CG18764 | 1 | – | – | 7128 | 3.74e5 | inactive
sit (stuck in traffic) | 1 | – | – | 6730 | 4.72e5 | inactive
CG31496 | 1 | – | – | 5027 | 5.10e5 | inactive
CG31496 | 2 | – | reporter ratio raised past the hit cutoff | – | – | inactive
phyl (phyllopod) | 1 | – | – | 5910 | 3.71e5 | inactive
CG34106 | 1 | – | – | 5146 | 3.87e5 | inactive
CG14153 | 1 | – | – | 5938 | 4.13e5 | inactive
CG14153 | 2 | – | – | 4355 | 3.67e5 | inactive
CR31958 (pseudo) | 1 | – | – | 6826 | 4.05e5 | inactive
CR31958 (pseudo) | 2 | – | – | 8571 | 6.35e5 | inactive
Spn43Ad (Serpin 43Ad) | 1 | – | – | 6986 | 4.31e5 | inactive
Hmgs (HMG Coenzyme A synthase) | 1 | – | – | 6690 | 2.92e5 | inactive
SA1 (Stromalin 1) | 1 | – | – | 10939 | 2.91e5 | inactive
CCT7 (Chaperonin containing TCP1 subunit 7) | 1 | – | – | 7107 | 4.67e5 | inactive
CG15286 | 1 | – | – | 5999 | 2.86e5 | inactive

A stretch taken from the entries so far:
Target gene | dsRNA no. | stable siRNA reporter change | miRNA reporter change | stable assay Renilla, run 1 (luminescence) | stable assay firefly, run 1 (luminescence) | outcome
CG18764 | 1 | – | – | 7128 | 3.74e5 | inactive
sit (stuck in traffic) | 1 | – | – | 6730 | 4.72e5 | inactive
CG31496 | 1 | – | – | 5027 | 5.10e5 | inactive
CG31496 | 2 | – | reporter ratio raised past the hit cutoff | – | – | inactive
phyl (phyllopod) | 1 | – | – | 5910 | 3.71e5 | inactive
CG34106 | 1 | – | – | 5146 | 3.87e5 | inactive
CG14153 | 1 | – | – | 5938 | 4.13e5 | inactive
CG14153 | 2 | – | – | 4355 | 3.67e5 | inactive

The list goes on.
Target gene | dsRNA no. | stable siRNA reporter change | miRNA reporter change | stable assay Renilla, run 1 (luminescence) | stable assay firefly, run 1 (luminescence) | outcome
CG31637 | 1 | – | – | 11482 | 1.14e6 | inactive
CG31637 | 2 | – | – | 8924 | 6.85e5 | inactive
CG7300 | 1 | – | – | 6488 | 1.06e6 | inactive
CG7300 | 2 | – | reporter ratio raised past the hit cutoff | – | – | inactive
Cpr47Eg (Cuticular protein 47Eg) | 1 | – | – | 6311 | 3.57e5 | inactive
Osi2 (Osiris 2) | 1 | – | – | 6459 | 3.08e5 | inactive
Tsp42Ek (Tetraspanin 42Ek) | 1 | – | – | 7094 | 4.07e5 | inactive
CG34187 (retired record) | 1 | – | – | 5539 | 3.04e5 | inactive
Mov10 (Mov10 RISC complex RNA helicase) | 1 | – | – | 11615 | 4.82e5 | inactive
NijB (Ninjurin B) | 1 | – | – | 3635 | 4.47e5 | inactive
Mvk + CG33672 + spt4 | 1 | – | – | 5843 | 4.45e5 | inactive
Mvk + CG33672 + spt4 | 2 | – | – | 8798 | 6.05e5 | inactive
Or33b (Odorant receptor 33b) | 1 | – | – | 4559 | 2.51e5 | inactive
CG9346 | 1 | – | – | 7082 | 6.33e5 | inactive
Snap24 (Synaptosomal-associated protein 24kDa) | 1 | – | – | 6635 | 4.06e5 | inactive
Cpr47Ea (Cuticular protein 47Ea) | 1 | – | – | 6080 | 3.44e5 | inactive
Polr2H (RNA polymerase II, I and III subunit H) | 1 | – | – | 4735 | 2.02e5 | inactive
Cpr47Ef (Cuticular protein 47Ef) | 1 | – | – | 5758 | 3.95e5 | inactive
Cpr47Ef (Cuticular protein 47Ef) | 2 | – | – | 3232 | 3.26e5 | inactive
CG31262 | 1 | – | – | 5934 | 5.99e5 | inactive
CG3847 | 1 | – | – | 5262 | 3.90e5 | inactive
CG3847 | 2 | – | – | 5495 | 4.47e5 | inactive
CG15431 | 1 | – | – | 7146 | 4.59e5 | inactive
Gr58a (Gustatory receptor 58a) | 1 | – | – | 5444 | 3.27e5 | inactive
TfIIFbeta (Transcription factor TFIIFbeta) | 1 | – | – | 5560 | 3.43e5 | inactive
TfIIFbeta (Transcription factor TFIIFbeta) | 2 | – | – | 8374 | 4.08e5 | inactive
